Results are given in words; binding and its absence hold for the method and conditions named. In cells and extracts the contact can be indirect. Some entries that bind do so weakly or less than the wild type. For some assays here: Tags and fused reporters may be left off the sequences shown.
B1: ubiquitin-specific protease 22 (USP22), endogenous (protein, UniProt Q9UPT9 1-525)
chain: MVSRPEPEGEAMDAELAVAPPGCSHLGSFKVDNWKQNLRAIYQCFVWSGTAEARKRKAKSCICHVCGVHLNRLHSCLYCVFFGCFTKKHIHEHAKAKRHNLAIDLMYGGIYCFLCQDYIYDKDMEIIAKEEQRKAWKMQGVGEKFSTWEPTKRELELLKHNPKRRKITSNCTIGLRGLINLGNTCFMNCIVQALTHTPLLRDFFLSDRHRCEMQSPSSCLVCEMSSLFQEFYSGHRSPHIPYKLLHLVWTHARHLAGYEQQDAHEFLIAALDVLHRHCKGDDNGKKANNPNHCNCIIDQIFTGGLQSDVTCQVCHGVSTTIDPFWDISLDLPGSSTPFWPLSPGSEGNVVNGESHVSGTTTLTDCLRRFTRPEHLGSSAKIKCSGCHSYQESTKQLTMKKLPIVACFHLKRFEHSAKLRRKITTYVSFPLELDMTPFMASSKESRMNGQYQQPTDSLNNDNKYSLFAVVNHQGTLESGHYTSFIRQHKDQWFKCDDAIITKASIKDVLDSEGYLLFYHKQFLEYE
B2: tagged USP22 expressed in 293T cells (protein, UniProt Q9UPT9 1-525)
chain: B1 chain

Chains of the proteins cited; added tags and fusions are not shown.
UniProt Q96EB6: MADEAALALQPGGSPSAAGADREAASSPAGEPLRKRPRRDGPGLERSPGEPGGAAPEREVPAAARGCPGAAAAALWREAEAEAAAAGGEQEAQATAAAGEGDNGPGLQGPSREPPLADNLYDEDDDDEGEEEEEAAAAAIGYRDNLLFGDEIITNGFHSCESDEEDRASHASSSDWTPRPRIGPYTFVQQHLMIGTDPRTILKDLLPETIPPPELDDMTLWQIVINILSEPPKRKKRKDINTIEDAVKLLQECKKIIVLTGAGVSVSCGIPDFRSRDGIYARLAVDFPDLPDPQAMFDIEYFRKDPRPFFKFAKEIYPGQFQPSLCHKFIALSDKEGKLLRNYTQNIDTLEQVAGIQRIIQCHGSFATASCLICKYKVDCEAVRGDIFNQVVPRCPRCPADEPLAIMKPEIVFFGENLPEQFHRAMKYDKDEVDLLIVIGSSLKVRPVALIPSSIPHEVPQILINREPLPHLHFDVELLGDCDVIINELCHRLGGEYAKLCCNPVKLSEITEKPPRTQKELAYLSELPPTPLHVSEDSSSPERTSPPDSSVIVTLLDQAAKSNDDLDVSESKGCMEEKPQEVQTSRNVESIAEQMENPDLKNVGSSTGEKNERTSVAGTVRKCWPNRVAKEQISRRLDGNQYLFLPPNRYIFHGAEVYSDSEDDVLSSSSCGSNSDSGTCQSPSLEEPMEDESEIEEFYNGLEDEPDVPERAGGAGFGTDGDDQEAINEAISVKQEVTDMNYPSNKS

What was measured:
[1] = target: sirtuin-1 (SIRT1), endogenous (human (endogenous in RBE)) (UniProt Q96EB6); assay: co-IP; endogenous proteins; lysates of RBE-shControl and RBE-shUSP22 cells; antibody to USP22 or SIRT1 (IgG as control) immobilised on AminoLink Plus resin (Pierce co-IP kit), incubated with lysate overnight; immunoblot
[2] = target: tagged SIRT1 expressed in 293T cells (UniProt Q96EB6); assay: co-IP; 293T cells transfected with tagged USP22 and tagged SIRT1 alone or together, lysed after 48 h; immunoprecipitation and immunoblot with antibodies to Flag and Myc (IgG as control)

Binder | binding [1] | binding [2]
B1 | binds | –
B2 | – | binds
